In PMC10284394 one finds binding data, which are given here for one substance.

Protein sequences, listed by entry. Tags and fused reporters are not part of them.
UniProt P21707: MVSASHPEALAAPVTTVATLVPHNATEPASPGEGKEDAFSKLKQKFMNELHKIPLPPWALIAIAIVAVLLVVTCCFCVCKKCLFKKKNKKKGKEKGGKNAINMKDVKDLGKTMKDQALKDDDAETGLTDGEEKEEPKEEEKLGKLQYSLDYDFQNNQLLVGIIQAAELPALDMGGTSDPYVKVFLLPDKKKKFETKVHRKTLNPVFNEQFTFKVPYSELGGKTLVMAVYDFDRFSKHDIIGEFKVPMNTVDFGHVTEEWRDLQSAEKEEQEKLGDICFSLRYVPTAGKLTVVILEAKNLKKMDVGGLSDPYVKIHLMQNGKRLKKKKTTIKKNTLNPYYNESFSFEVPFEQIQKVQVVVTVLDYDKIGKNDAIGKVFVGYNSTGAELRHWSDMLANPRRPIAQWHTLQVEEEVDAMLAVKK

For this experiment, the target named is T1, GST-Rab26WT (UniProt Q9ULW5).
T1 sequence: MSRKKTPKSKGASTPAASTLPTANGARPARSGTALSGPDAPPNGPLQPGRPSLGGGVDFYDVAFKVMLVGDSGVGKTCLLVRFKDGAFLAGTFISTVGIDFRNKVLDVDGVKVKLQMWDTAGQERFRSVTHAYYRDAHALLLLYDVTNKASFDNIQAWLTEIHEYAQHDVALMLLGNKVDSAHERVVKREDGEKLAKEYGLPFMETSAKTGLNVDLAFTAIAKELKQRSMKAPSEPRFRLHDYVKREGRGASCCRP
As to the kind of experiment: affinity purification with mass spectrometry; large-scale GST pull-down with GST-Rab26QL, Rab26TN and Rab26WT from rat brain tissue lysate (legend: mouse liver lysate); SDS-PAGE, silver staining, LC-MS; only the target purified.

No constants are given. Whether binding was seen depends on the method and setting. Binding seen in cells or lysates may run through a third protein. A yes stands for co-enrichment or nearness to the bait. Other partners may have been found. Sequences can lack the tags named with a protein.

Consider “endogenous Synaptotagmin-1 (tissue lysate of the large-scale pull-down) (from UniProt P21707 1-421)”, for which the binding entry was “binds”.
